The target of the assay is T1, Ataxin-2-like (ATXN2L) (mouse (endogenous in MEF)) (UniProt Q7TQH0).
T1 sequence: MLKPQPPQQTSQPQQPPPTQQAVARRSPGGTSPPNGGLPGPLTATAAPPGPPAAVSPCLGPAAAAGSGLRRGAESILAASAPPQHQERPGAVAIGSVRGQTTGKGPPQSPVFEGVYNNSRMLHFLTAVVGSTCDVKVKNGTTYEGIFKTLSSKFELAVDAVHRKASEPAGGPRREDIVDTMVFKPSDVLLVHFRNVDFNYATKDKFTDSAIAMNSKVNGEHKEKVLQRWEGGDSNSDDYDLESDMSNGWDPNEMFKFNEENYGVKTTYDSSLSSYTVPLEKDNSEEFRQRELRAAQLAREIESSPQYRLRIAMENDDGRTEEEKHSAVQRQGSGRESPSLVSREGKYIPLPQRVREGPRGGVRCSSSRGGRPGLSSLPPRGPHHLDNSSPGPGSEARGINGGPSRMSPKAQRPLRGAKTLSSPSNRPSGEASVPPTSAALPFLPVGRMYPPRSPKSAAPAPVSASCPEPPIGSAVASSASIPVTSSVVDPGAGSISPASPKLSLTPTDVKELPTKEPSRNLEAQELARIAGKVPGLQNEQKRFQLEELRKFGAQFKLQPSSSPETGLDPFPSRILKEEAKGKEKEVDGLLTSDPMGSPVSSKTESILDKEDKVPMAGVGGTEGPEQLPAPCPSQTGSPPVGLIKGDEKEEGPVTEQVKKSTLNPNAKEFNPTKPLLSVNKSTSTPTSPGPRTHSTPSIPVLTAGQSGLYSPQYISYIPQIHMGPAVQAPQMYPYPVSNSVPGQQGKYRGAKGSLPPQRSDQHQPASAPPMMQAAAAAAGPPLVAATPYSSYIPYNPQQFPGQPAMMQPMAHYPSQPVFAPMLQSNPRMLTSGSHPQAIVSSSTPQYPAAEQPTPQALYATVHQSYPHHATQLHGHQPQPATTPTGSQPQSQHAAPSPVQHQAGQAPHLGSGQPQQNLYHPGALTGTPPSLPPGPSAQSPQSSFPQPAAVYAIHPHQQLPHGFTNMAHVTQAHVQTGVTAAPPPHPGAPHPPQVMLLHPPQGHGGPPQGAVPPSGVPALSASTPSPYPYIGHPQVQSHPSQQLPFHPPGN
As to the kind of experiment: co-IP.

Chains of the proteins cited; added tags and fusions are not shown.
UniProt P29341: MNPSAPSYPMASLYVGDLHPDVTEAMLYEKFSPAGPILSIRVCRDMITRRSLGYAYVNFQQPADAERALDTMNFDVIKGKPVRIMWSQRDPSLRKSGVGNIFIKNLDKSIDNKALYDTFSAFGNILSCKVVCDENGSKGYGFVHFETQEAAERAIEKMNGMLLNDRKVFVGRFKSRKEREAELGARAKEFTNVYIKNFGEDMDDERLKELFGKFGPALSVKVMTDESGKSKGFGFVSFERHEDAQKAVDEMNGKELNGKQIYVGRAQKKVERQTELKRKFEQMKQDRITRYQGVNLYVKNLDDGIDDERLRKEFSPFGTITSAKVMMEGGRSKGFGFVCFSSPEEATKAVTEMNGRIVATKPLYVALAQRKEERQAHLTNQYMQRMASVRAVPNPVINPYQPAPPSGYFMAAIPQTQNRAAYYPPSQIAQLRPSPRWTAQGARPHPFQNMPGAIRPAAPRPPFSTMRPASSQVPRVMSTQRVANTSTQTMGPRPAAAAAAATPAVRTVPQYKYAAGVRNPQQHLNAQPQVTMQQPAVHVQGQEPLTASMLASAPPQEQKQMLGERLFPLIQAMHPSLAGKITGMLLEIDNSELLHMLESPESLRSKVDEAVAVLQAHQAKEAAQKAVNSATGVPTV

No constants are given. Whether binding was seen depends on the method and setting. In cells and extracts the contact can be indirect. Some entries that bind do so weakly or less than the wild type.

With “cytosolic poly(A) binding protein PABPC1 (from UniProt P29341 1-636)”, the binding entry was “binds”.

For the origin of these results see article doi:10.1101/2025.03.06.641895.
